Assay results reported in the supplement of paper PMC12823440, “Inhibitors supercharge kinase turnover through native proteolytic circuits” (Nature, 2025).
Structures can show the parent of a compound that is named as a salt. Some of the results follow. Hit calls seldom repeat between salt and free forms of one compound.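 In K562 cells expressing nanoluciferase-fused kinases, luminescence was recorded at 4 h intervals between 2 and 18 h, normalized as percent of control with DMSO at 100% and a positive control at 0%. A significant (2 sigma) signal drop marks a time point as decreased. The authors' rule for a hit is not shown and takes in more than the number of time points.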

Sequences of proteins named here, by UniProt entry; tags and fusion partners are left off. A change or cut given only in a name is not applied to a line headed by its entry.
UniProt Q8IWU2: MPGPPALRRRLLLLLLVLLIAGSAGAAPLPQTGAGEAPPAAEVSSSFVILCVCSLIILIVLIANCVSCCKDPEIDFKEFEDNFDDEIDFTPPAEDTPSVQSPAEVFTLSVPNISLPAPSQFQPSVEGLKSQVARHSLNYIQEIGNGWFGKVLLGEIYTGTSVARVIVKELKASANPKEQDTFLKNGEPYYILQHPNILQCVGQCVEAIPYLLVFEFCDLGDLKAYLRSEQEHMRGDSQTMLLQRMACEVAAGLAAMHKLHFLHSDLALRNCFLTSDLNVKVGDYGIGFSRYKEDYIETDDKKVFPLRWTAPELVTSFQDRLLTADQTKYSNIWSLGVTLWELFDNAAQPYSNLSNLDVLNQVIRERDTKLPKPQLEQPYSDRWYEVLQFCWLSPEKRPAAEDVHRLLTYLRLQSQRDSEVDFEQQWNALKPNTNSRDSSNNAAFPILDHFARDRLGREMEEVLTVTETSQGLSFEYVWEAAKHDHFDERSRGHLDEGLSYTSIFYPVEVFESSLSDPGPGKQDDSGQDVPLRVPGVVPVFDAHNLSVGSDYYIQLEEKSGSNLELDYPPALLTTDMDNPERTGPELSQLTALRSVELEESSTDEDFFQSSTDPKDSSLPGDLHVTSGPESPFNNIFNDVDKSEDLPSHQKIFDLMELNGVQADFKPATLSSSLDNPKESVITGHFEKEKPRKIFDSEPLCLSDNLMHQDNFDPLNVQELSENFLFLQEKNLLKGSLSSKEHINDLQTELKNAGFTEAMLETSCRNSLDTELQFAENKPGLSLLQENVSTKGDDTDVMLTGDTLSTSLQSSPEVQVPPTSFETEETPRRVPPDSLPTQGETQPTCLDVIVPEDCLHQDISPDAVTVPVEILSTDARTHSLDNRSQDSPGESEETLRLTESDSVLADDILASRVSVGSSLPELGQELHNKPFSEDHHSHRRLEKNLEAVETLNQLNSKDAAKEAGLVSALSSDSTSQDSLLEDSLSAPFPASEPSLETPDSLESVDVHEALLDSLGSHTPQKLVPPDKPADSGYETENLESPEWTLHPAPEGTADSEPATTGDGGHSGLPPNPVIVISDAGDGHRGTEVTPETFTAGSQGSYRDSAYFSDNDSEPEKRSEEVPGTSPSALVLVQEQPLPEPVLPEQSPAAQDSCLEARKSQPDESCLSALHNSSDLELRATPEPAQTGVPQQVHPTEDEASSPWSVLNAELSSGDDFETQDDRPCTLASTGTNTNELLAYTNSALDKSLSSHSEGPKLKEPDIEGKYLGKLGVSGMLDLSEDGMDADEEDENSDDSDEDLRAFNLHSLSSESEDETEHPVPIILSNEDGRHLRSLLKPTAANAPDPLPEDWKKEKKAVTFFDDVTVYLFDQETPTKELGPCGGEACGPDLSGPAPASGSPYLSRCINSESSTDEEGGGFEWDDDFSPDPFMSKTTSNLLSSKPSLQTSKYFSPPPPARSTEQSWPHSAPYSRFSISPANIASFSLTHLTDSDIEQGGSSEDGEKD
UniProt P07948: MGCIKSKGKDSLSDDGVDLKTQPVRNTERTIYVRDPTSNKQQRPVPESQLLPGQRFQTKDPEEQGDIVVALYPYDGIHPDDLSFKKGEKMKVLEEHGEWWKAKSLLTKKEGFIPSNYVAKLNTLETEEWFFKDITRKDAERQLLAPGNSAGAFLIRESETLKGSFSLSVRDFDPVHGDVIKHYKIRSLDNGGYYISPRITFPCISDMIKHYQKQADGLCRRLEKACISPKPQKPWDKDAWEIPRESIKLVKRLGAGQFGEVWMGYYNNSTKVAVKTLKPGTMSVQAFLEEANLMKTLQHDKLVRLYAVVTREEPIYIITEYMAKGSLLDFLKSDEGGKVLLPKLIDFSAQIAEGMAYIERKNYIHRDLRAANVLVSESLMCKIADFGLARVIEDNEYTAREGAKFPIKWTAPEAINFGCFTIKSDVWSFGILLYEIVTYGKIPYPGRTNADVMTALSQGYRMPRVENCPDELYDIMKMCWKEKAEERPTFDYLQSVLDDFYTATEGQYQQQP
UniProt Q12851: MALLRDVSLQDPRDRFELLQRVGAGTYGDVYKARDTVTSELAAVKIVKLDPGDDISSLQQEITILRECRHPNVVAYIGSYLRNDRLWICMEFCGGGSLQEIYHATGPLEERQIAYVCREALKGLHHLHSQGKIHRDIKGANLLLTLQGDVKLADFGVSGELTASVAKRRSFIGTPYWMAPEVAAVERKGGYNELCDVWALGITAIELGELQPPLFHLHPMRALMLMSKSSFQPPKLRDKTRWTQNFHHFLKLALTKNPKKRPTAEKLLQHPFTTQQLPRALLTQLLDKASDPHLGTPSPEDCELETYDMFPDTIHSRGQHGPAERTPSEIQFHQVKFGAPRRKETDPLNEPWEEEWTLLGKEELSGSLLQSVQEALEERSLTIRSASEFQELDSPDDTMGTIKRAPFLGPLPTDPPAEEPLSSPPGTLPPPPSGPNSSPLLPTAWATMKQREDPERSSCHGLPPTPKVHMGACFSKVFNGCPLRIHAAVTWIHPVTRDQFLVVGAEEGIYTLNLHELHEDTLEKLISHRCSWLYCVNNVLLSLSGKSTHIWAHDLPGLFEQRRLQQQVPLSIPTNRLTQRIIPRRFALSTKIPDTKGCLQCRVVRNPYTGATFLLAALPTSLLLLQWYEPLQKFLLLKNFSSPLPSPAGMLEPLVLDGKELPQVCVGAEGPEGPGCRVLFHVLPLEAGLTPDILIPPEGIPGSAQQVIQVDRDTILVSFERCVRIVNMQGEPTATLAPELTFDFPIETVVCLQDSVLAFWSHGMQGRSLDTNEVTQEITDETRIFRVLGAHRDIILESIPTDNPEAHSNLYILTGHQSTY
UniProt P28482, whole entry: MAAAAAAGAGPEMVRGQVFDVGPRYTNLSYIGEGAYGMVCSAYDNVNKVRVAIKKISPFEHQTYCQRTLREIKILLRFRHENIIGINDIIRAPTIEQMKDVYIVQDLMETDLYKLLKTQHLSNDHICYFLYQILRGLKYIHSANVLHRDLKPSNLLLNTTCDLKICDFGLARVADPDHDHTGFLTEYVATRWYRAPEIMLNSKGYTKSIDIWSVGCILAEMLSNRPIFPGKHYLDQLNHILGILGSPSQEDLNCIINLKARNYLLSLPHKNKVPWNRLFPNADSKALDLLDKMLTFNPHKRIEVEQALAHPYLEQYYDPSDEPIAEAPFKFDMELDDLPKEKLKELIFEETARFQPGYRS
UniProt P31152, whole entry: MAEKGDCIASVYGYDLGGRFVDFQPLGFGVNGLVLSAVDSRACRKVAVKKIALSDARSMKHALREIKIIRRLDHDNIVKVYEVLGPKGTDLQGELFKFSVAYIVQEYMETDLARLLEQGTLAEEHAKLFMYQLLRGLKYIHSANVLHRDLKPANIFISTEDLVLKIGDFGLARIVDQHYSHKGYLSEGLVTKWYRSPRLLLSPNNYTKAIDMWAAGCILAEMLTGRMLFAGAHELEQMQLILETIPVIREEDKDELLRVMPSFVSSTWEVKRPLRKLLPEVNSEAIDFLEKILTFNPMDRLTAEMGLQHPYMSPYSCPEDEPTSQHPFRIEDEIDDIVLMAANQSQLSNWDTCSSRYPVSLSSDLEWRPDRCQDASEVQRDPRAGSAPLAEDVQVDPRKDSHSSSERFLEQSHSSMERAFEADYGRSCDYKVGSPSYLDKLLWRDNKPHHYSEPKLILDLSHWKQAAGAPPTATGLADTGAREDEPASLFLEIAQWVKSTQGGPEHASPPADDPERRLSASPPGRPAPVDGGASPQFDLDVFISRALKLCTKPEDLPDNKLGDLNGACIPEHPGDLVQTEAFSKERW
UniProt P49137, whole entry, looked up: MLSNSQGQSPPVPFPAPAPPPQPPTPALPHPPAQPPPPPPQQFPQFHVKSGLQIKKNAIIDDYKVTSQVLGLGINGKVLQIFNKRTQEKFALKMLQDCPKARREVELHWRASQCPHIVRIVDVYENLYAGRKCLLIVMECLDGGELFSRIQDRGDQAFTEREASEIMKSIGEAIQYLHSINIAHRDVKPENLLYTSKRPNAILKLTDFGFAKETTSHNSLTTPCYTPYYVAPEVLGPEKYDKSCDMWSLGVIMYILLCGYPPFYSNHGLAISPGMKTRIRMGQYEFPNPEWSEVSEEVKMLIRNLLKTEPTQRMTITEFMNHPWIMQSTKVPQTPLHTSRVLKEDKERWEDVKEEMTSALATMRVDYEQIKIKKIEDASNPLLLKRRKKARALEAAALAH
UniProt Q9BUB5: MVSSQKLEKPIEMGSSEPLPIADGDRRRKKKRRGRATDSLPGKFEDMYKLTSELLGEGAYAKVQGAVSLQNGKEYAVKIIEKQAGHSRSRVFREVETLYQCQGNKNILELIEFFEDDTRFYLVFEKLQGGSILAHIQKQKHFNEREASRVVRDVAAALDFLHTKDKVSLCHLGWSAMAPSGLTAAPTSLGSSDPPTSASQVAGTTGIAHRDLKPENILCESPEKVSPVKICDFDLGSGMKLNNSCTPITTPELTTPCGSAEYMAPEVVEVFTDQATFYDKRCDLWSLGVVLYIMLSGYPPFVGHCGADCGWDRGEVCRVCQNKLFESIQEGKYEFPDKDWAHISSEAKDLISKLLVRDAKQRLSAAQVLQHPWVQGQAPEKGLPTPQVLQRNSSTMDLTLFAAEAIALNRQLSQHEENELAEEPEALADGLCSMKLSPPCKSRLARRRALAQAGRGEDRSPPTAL
UniProt Q16620, whole entry, looked up: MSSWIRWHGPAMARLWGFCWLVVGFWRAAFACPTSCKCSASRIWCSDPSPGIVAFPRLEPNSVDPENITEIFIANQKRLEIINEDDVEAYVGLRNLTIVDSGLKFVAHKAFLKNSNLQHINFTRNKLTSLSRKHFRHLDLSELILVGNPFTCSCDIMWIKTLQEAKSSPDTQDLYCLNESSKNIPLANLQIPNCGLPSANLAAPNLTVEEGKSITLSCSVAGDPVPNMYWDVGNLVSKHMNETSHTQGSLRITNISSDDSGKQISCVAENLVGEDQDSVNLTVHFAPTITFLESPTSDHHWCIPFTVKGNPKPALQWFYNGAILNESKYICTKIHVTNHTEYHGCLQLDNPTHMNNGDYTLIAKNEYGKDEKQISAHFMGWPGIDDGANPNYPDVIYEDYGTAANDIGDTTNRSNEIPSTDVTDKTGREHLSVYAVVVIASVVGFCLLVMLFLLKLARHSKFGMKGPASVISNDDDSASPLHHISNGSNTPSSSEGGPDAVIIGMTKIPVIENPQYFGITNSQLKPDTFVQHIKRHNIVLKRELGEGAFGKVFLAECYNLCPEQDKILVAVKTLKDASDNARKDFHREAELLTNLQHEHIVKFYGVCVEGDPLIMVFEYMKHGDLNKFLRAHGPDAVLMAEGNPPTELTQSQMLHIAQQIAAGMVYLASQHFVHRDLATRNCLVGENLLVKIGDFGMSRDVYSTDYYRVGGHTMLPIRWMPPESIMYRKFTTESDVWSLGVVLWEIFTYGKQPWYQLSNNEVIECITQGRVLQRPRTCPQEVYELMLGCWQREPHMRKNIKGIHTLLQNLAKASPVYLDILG

How the values were obtained:
Experiment in all cases: number of time points (of 5) at which kinase-Nluc abundance scored as decreased, DMSO-normalised (count); higher = more persistent destabilization
Conditions in all cases: K562; 2-18 h
[1] = target: LMTK2 (UniProt Q8IWU2)
[2] = target: LYN (UniProt P07948)
[3] = target: MAP2K1 (UniProt Q02750)
[4] = target: MAP2K2 (UniProt P36507)
[5] = target: MAP4K2 (UniProt Q12851)
[6] = target: MAPK1 (UniProt P28482)
[7] = target: MAPK4 (UniProt P31152)
[8] = target: MAPKAPK2 (UniProt P49137)
[9] = target: MKNK1 (UniProt Q9BUB5)
[10] = target: NTRK2 (UniProt Q16620)

| Structure (SMILES) | number of time points [1] | number of time points [2] | number of time points [3] | number of time points [4] | number of time points [5] | number of time points [6] | number of time points [7] | number of time points [8] | number of time points [9] | number of time points [10] |
| --- | --- | --- | --- | --- | --- | --- | --- | --- | --- | --- |
| O=C(/C=C/c1ccccc1)OC[C@H]1O[C@@H](O[C@@H]2OC=C[C@H]3[C@H](O)[C@@H]4O[C@]4(CO)[C@@H]23)[C@H](O)[C@@H](O)[C@@H]1O [Picroside I] (10 µM) | 0 | 0 | 0 | 0 | 0 | 0 | 0 | 0 | 0 | 0 |
| O=c1ccc2cc(O[C@@H]3O[C@H](CO)[C@@H](O)[C@H](O)[C@H]3O)c(O)cc2o1 [Esculin] (10 µM) | 0 | 0 | 0 | 0 | 0 | 0 | 0 | 0 | 0 | 0 |
| CC(=O)Oc1ccc(/C=C/c2cc(OC(C)=O)cc(OC(C)=O)c2)cc1 [Triacetylresveratrol] (10 µM) | 0 | 0 | 0 | 0 | 0 | 0 | 0 | 0 | 0 | 0 |
| C=CC(=O)N[C@H]1C=C(C)c2c(-c3cnc4ccccc4c3)c3c(N)ncnc3n2C1 (10 µM) | 0 | 0 | 0 | 0 | 0 | 0 | 0 | 0 | 0 | 0 |
| C[C@H]1CC[C@]2(NC1)O[C@H]1C[C@H]3[C@@H]4CC[C@H]5C[C@@H](O)CC[C@]5(C)[C@H]4CC[C@]3(C)[C@H]1[C@@H]2C [Tomatidine] (2 µM) | 0 | 0 | 0 | 0 | 0 | 0 | 0 | – | 0 | 0 |
| O=c1[nH]c2ccccc2n1C1CCN(Cc2ccc(-c3[nH]c4cc5ncnc5cc4nc3-c3ccccc3)cc2)CC1 [AKT inhibitor VIII] (2.5 µM) | 0 | 0 | 0 | 0 | 0 | 0 | 0 | 0 | 0 | 0 |
| Nc1ncnc2c1ncn2[C@@H]1O[C@@H]2COP(O)(=S)O[C@H]2[C@H]1O (stereo partly drawn) [Sp-cAMPS (sodium salt)] (10 µM) | 0 | 0 | 0 | 0 | 0 | 0 | 0 | 0 | 0 | 0 |
| COC[C@H]1OC(=O)c2coc3c2[C@@]1(C)C1=C(C3=O)[C@@H]2CCC(=O)[C@@]2(C)C[C@H]1OC(C)=O [Wortmannin] (2.5 µM) | 0 | 0 | 0 | 0 | 0 | 0 | 0 | 0 | 4 | 0 |
| C[C@H](CCC(=O)O)C[C@H](C)C[C@H](C)C(=O)/C=C(\O)[C@H](C)C[C@H](C)C/C=C/[C@@H](C)[C@@H](O)[C@@H](C)[C@@H](O)C[C@@H]1CC[C@@](C)([C@H]2CC[C@@](C)([C@@H](C)O)O2)O1 [Ionomycin (calcium)] (2.5 µM) | 0 | 0 | 0 | 0 | 0 | 0 | 2 | 0 | 0 | 5 |
| Cn1cc(C2=C(c3cn(C4CCN(Cc5ccccn5)CC4)c4ccccc34)C(=O)NC2=O)c2ccccc21 [Enzastaurin] (10 µM) | 0 | 0 | 0 | 0 | 0 | 0 | 0 | 0 | 0 | 0 |
| COc1ccc2c(c[n+](C)c3c4cc5c(cc4ccc23)OCO5)c1OC [Chelerythrine (chloride)] (10 µM) | 1 | 0 | 0 | 0 | 0 | 0 | 0 | 0 | 0 | 0 |
| Cc1[nH]ncc1-c1cc2nc([C@H]3CC4CCN3CC4)[nH]c(=O)c2s1 [(R)-Simurosertib] (10 µM) | 0 | 0 | 0 | 0 | 0 | 0 | 0 | 0 | 0 | 0 |
| COc1ccc(N(C(=O)Oc2c(C)cccc2C)c2ccnc(Nc3ccc(N4CCN(C)CC4)cc3)n2)c(OC)c1 (2.5 µM) | 0 | 0 | 0 | 0 | 0 | 0 | 0 | 0 | 0 | 0 |
| Cc1n[nH]cc1-c1cc2nc([C@@H]3CC4CCN3CC4)[nH]c(=O)c2s1 [Simurosertib] (2.5 µM) | 0 | 0 | 0 | 0 | 0 | 0 | 0 | 0 | 0 | 0 |
| O=C1C=CC[C@@H]2[C@H]3CCCN4CCC[C@@H](CN12)[C@@H]34 [Sophocarpine (monohydrate)] (2.5 µM) | 0 | 0 | 0 | 0 | 0 | 0 | 0 | 0 | 0 | 0 |
| CCCCNc1nc(N)c2[nH]c(=O)n(Cc3ccc(C)nc3)c2n1 (10 µM) | 0 | 0 | 0 | 0 | 0 | 0 | 0 | 0 | 0 | 0 |
| O=C1C=CC[C@@H]2[C@H]3CCCN4CCC[C@@H](CN12)[C@@H]34 [Sophocarpine] (10 µM) | 0 | 0 | 0 | 0 | 0 | 0 | 0 | 0 | 0 | 0 |
| COc1ccc2c(c1)/C(=C/c1cnc[nH]1)C(=O)N2 (2.5 µM) | 0 | 0 | 0 | 0 | 0 | 0 | 0 | 0 | 0 | 0 |
| Cc1ccccc1-n1c(Cn2ncc3c(N)ncnc32)nc2cccc(C)c2c1=O (10 µM) | 0 | 0 | 0 | 0 | 0 | 0 | 0 | 0 | 0 | 0 |
| CCN1CCN(C(=O)Cc2ccc(Nc3ncc(F)c(Nc4ccc(C(=O)Nc5ccccc5Cl)cc4)n3)cc2)CC1 (2.5 µM) | 0 | 0 | 0 | 0 | 0 | 0 | 0 | 0 | 0 | 0 |
| C/C(O)=C(\C#N)C(=O)Nc1cc(Br)ccc1Br (10 µM) | 0 | 0 | 0 | 0 | 0 | 0 | 0 | 0 | 0 | 0 |
| CC(C)=CC[C@@H](OC(=O)CC(C)(C)O)C1=CC(=O)c2c(O)ccc(O)c2C1=O [β-Hydroxyisovalerylshikonin] (2.5 µM) | 0 | 0 | 0 | 0 | 0 | 0 | 0 | 0 | 0 | 0 |
| COc1ccc2c(c1OC)C(OC)N(C)c1c-2ccc2cc3c(cc12)OCO3 (stereo not drawn) [Angoline] (10 µM) | 0 | 0 | 0 | 0 | 0 | 0 | 0 | 0 | 0 | 0 |
| Cc1ccccc1-n1c(Cn2cnc3c(N)ncnc32)nc2cccc(C)c2c1=O (10 µM) | 0 | 0 | 0 | 0 | 0 | 0 | 0 | 0 | 0 | 0 |
| N#CC(C#N)=Cc1ccc(O)c(O)c1 [Tyrphostin 23] (10 µM) | 0 | 0 | 0 | 0 | 0 | 0 | 0 | 0 | 0 | 0 |
| O=C(O)c1sc2cc(Cl)ccc2c1Cl (10 µM) | 0 | 0 | 0 | 0 | 0 | 0 | 0 | 0 | 0 | 0 |
| C[C@H]1CC[C@]2(NC1)O[C@H]1C[C@H]3[C@@H]4CC[C@H]5C[C@@H](O)CC[C@]5(C)[C@H]4CC[C@]3(C)[C@H]1[C@@H]2C [Tomatidine (hydrochloride)] (10 µM) | 0 | 0 | 0 | 0 | 0 | 0 | 0 | – | 0 | 0 |
| N#CC(C#N)=Cc1ccc([N+](=O)[O-])c(O)c1 (10 µM) | 0 | 0 | 0 | 0 | 0 | 0 | 0 | 0 | 0 | 0 |

Full records from above. Values in the order: number of time points [1]	number of time points [2]	number of time points [3]	number of time points [4]	number of time points [5]	number of time points [6]	number of time points [7]	number of time points [8]	number of time points [9]	number of time points [10]
Cc1[nH]ncc1-c1cc2nc([C@H]3CC4CCN3CC4)[nH]c(=O)c2s1 [(R)-Simurosertib] (10 µM) is entered as 0	0	0	0	0	0	0	0	0	0
C[C@H](CCC(=O)O)C[C@H](C)C[C@H](C)C(=O)/C=C(\O)[C@H](C)C[C@H](C)C/C=C/[C@@H](C)[C@@H](O)[C@@H](C)[C@@H](O)C[C@@H]1CC[C@@](C)([C@H]2CC[C@@](C)([C@@H](C)O)O2)O1 [Ionomycin (calcium)] (2.5 µM) is entered as 0	0	0	0	0	0	2	0	0	5
